The target of the assay is T1, FLAG-tagged wild-type AMOTL2 (Angiomotin-like 2) (UniProt Q9Y2J4).
T1 sequence: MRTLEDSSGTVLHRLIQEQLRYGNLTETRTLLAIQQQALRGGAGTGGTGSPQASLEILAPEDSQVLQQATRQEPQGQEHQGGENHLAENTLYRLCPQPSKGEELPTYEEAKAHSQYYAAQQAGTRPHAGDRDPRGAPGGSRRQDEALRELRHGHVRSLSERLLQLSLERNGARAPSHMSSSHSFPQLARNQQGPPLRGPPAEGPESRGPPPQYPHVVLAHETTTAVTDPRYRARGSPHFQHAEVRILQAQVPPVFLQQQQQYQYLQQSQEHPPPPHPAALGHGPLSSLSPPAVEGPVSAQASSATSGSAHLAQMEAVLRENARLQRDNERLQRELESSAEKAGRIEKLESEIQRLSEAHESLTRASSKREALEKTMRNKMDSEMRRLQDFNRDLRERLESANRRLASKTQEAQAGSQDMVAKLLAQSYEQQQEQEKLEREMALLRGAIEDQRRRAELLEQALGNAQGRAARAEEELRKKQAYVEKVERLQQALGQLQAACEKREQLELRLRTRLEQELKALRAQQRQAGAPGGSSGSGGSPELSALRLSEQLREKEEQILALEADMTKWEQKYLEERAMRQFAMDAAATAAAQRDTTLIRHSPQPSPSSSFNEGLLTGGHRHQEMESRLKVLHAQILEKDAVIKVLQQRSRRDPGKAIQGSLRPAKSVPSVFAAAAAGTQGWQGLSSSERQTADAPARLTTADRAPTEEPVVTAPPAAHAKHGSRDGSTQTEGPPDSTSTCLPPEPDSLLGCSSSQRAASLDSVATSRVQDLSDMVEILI
Briefly: co-IP; anti-FLAG M2 magnetic beads on lysates of HEK293T cells at high cell density co-expressing FLAG-AMOTL2 constructs and HA-YAP; overnight at 4 °C; eluted with FLAG peptide; anti-HA immunoblot. (In general: A western blot detects proteins with antibodies after separation by electrophoresis.)

Protein sequences, listed by entry. Tags and fused reporters are not part of them.
UniProt P46937: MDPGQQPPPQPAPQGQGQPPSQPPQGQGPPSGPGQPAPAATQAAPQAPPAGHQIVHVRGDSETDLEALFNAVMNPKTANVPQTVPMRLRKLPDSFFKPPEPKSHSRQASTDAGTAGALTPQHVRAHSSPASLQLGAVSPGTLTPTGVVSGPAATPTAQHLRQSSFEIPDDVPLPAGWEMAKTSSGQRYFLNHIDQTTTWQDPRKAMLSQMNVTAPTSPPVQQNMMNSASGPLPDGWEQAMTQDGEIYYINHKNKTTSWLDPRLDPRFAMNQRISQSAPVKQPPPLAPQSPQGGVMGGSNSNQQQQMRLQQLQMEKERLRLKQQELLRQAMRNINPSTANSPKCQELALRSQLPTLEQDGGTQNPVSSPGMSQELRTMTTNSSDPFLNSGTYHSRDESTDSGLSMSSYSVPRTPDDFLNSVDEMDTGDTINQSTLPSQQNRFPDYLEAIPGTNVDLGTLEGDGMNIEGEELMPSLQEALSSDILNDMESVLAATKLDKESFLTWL

No constants are given. Whether binding was seen depends on the method and setting. In cells and extracts the contact can be indirect. Some binding calls cover weakened binding; strength is not graded here. Tags and fused reporters may be left off the sequences shown.

On to “HA-tagged YAP (Yes-associated protein) (from UniProt P46937 1-504)”, for which the binding entry is recorded as “binds”.

Values taken from PMC10735217.
